# Reference: patent US9192589B2, “Chalcones as enhancer of antimicrobial agents” (priority 2009, dated 2015)
# Tests used:
# [1] = system: A. Viscosus biofilm; experiment: Inhibition of single species biofilm formation (BEC50, crystal violet); assay type: cell-based, Actinomyces viscosus
# Method: (§1) Actinomyces viscosus (ATCC#43146) was grown in trypticase soy broth supplemented with 0.6% yeast extract (TSB-YE) at 37° C., static culture. For mixed species assays, the source of bacteria was a continuous culture chemostat inoculated with A. viscosus, Lactobacillus casei (ATCC #334), Streptococcus oxalis (ATCC #35037), Fusobacterium nucleatum (ATCC #10953), and Veilonella parvula (ATCC #17745). This mixed culture was maintained in a specialized complex medium in a continuous culture chemostat at 37° C.
# To assess the bioenhancing ability of CK-4, inhibition of single species biofilm formation tests were conducted. Actives of interest were plated in the first column of a sterile 384-well culture plate and serial twofold dilutions were performed across the plate in 0.5× TSB. First generation cultures of A. Viscosus bacteria were grown overnight in TSB-YE. Cultures were diluted to an OD610˜0.2 in 0.5×TSB and plated in the wells containing serial dilutions of actives. Plates were incubated for 24 hours at 37° C. to allow growth and biofilm formation to occur.
# Following incubation, supernatants were removed from the plate and remaining biofilms were stained with 0.03% Grain's crystal violet. Stained plates were read on a Perkin Elmer EnVision microplate reader for absorbance at 590 nm.
# [2] = system: A. viscosus; experiment: MIC assay using A. viscosus as reference organism (96-well, OD610); assay type: cell-based; details: Actinomyces viscosus, compound alone, 0.5x TSB, overnight 37° C.
# Method: The compound CK-4 was first tested to assess whether it had antimicrobial efficacy on its own. An MIC assay was performed on two known anti-bacterial agents, as well as CK-4, using A. viscosus as the reference organism.
# as §1
# MIC assays were performed using A. viscosus as a reference organism. Compounds to be tested were plated in the duplicate rows of the first column of a sterile 96-well culture plate. Two-fold serial dilutions were performed into 0.5×TSB across the plate. […] The OD610 of the entire plate was read on a Perkin Elmer EnVision microplate reader. Absorbance values for duplicate wells were averaged and compared to values for wells containing bacteria in media alone. MIC values were determined as the concentration of active in the last well for which growth of bacteria was inhibited relative to the media controls. […]
smiles,measurement,setting,value
"CCCCCCCCCCCCCCCC[n+]1ccccc1 [CPC, cetyl pyridinium chloride]",BEC50 alone,"[1]; A. viscosus single species biofilm, 24 hours, agent alone",1.95
same,BEC50 with CK-4,"[1]; A. viscosus single species biofilm, 24 hours, with CK-4",0.49
same,decrease in BEC50 compared to agent alone,[1]; with CK-4,~4 fold
same,MIC,[2],< 1 µg/mL
